According to PubChem BioAssay AID624297 (National Center for Advancing Translational Sciences (NCATS), 2012):
In all, about 340,000 compounds went through this assay and about 6,200 (1.8%) were called active. This list was built around the results that the source calls inconclusive (neither active nor inactive); the mix of calls is not that of the screen. Calls come from the whole dose curve; as a rule, active = well fitted activation curve with a large enough effect; inconclusive = small, poorly fitted or top-dose-only effect; inactive = no such curve, though single readings can be large or run the other way. Where the call is inconclusive, the potency comes from a doubtful curve fit.

assay: A quantitative high throughput screen for small molecules that induce DNA re-replication in SW480 colon adenocarcinoma cells.; note: nearly all actives have a fitted effect of over 55% in size; for re-replication activation: % of control where 0% means no effect; settings: Hoechst DNA content imaging, 48 h; re-replication activation: at 46.1 µM (top of the series) unless noted
Summary of the method: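 Image-based DNA-content assay: after two days of treatment, nuclei were labelled with the DNA dye Hoechst and imaged, and hits were compounds raising the count of nuclei showing high fluorescence intensity.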
Potency is the fitted concentration of half-maximal effect.

Compound | Potency | re-replication activation
CCOP(=O)(OCC)c1nc(/C=C/c2ccccc2)oc1NCc1ccccc1 | active: 20.6 µM | –
O=C(NCc1ccccc1Cl)c1cccc2c1C(=O)c1ccc(-c3ccc(OC(F)(F)F)cc3)cc1S2(=O)=O | – | inactive: 1.54%
C[C@H]1CN([C@@H](C)CO)C(=O)c2cccc(NC(=O)Nc3ccc(C(F)(F)F)cc3)c2O[C@@H]1CN(C)S(=O)(=O)c1ccc(Cl)cc1 | inconclusive: 29.1 µM [activator, single point] | –
N#CC1=C(SCc2ccc(C#N)cc2)N=C(N)C(c2nc(-c3ccccc3)cs2)C12CCCCC2 (configuration not stated) | inconclusive: 29.1 µM [activator, partial curve, poor fit] | –
Cc1ccc(C)c(CN2CCC(CNC(=O)Nc3cccc(Cl)c3C)CC2)c1 | inconclusive: 23.1 µM [activator, single point] | –
O=C(Cc1ccccc1F)Nc1ccc(S(=O)(=O)N2CCCCC2)cc1 | inconclusive: 23.1 µM [activator, partial curve, poor fit] | –
CCOc1ccc2[nH]c(=O)c(C(c3nnnn3CC3CCCO3)N3CCc4ccccc4C3)cc2c1 (configuration not stated) | inconclusive: 18.4 µM [activator, single point] | –
O=[N+]([O-])c1cc(S(=O)(=O)N2CCOCC2)ccc1N1CCCC1 | inconclusive: 7.31 µM [activator, partial curve] | –
C[C@H](NC(=O)c1nc[nH]c1C(=O)NC1CCN(C(=O)OC(C)(C)C)CC1)C(=O)OC(C)(C)C | active: 0.164 µM | –
CCOC(=O)C1CN(S(C)(=O)=O)c2cc(CC(=O)OC)ccc2O1 (configuration not stated) | – | inactive: 2.18%
CC(=O)Nc1ccc(-c2cc(C(=O)O)c3ccc(C)cc3n2)cc1 | – | inactive: -0.567%
COc1ccc(/C=C2/C(=O)ON=C2C)cc1Cl | inconclusive: 29.1 µM [activator, single point] | –
Cn1c(=O)c2ccccc2n(CC(=O)N2CCCc3ccccc32)c1=O | – | inactive: -23.1%
COc1ccc(/C(C)=N/NC(=O)CNC(=O)c2cccs2)cc1 | inconclusive: 29.1 µM [activator, single point] | –
C=CCc1cc(Cl)ccc1OCCOCCNC(C)(C)C | inconclusive: 16.4 µM [activator, partial curve, poor fit] | –
CC1CCC(NCCNC(=O)c2ccco2)CC1 (configuration not stated) | – | inactive: -4.77%
O=C(CN1CCN(c2ccccc2Cl)CC1)NC1CCCc2ccccc21 (configuration not stated) | inconclusive: 25.9 µM [activator, partial curve, poor fit] | –
N#Cc1ccc(/C=C/C(=O)c2ccc3c(c2)OCO3)cc1 | inconclusive: 29.1 µM [activator, single point] | –
CCN(CC)CCCN(C(=O)c1ccc(Br)cc1)c1nc(-c2ccc(OC)cc2)cs1 | inconclusive: 29.1 µM [activator, single point] | –
COc1ccccc1NC(=O)CCc1nc2sc3c(c2c(=O)[nH]1)CCCC3 | – | inconclusive: -46.7% [activator]
C[C@@H]1CN([C@H](C)CO)C(=O)Cc2cc(NS(=O)(=O)c3cn(C)cn3)ccc2O[C@H]1CN(C)S(=O)(=O)c1ccc(Cl)cc1 | inconclusive: 7.31 µM [activator, partial curve, poor fit] | –

Compound | Potency | re-replication activation
Cc1c(OC(C)C(=O)N2C[C@H]3C[C@@H](C2)c2cccc(=O)n2C3)ccc2c3c(c(=O)oc12)CCCC3 (some centres not stated) | – | inactive: 1.02%
O=C(Nc1cccnc1Cl)C1=NN(c2ccccc2)C(=O)CC1 | inconclusive: 3.26 µM [activator, partial curve, poor fit] | –
O=C1OCCN1C(=O)[C@H]1[C@H](c2ccc(F)cc2)C(c2cccc(Cl)c2)=NN1c1ccccc1 | active: 18.4 µM | –
Cc1ccc(Nc2c(O)nc[nH]c2=O)cc1C | – | inactive: -13.6%
CCn1nc(C)c(CNC(=O)c2cc(COc3ccccc3SC)on2)c1C | – | inactive: 0.947%
O=c1[nH]c2c(=O)[nH]cnc2nc1-c1ccccc1 | inconclusive: 14.6 µM [activator, partial curve, poor fit] | –
Cc1noc(C)c1COc1ccccc1C(=O)NNC(=O)C(C)Oc1ccccc1F (configuration not stated) | – | inactive: 1.28%
Cc1nnc(N2C(=O)C(O)=C(C(=O)c3ccco3)C2c2ccc(C(C)(C)C)cc2)s1 (configuration not stated) | – | inactive: -6.6%
O=C(CN1CCOCC1)Nc1ccc(OC(F)(F)F)cc1 | – | inactive: -2.56%
CC(=O)N(C(C)=O)c1cccc(N(Cc2ccccc2)Cc2ccccc2)c1 | inconclusive: 29.1 µM [activator, single point] | –
C=CCn1c(Cc2cccc3ccccc23)n[nH]c1=S | inconclusive: 5.17 µM [activator, single point] | –
O=S(=O)(Cc1cc(Cl)nc(-c2ccncc2)n1)c1ccccc1 | inconclusive: 29.1 µM [activator, single point] | –
O=C(NCc1ccc2c(c1)OCO2)C1CCN(c2nccc(C(F)(F)F)n2)CC1 | inconclusive: 29.1 µM [activator, single point] | –
COc1cccc(C(=O)Nc2ccc(Oc3cccc(C(F)(F)F)c3)nc2)c1 | inconclusive: 18.4 µM [activator, single point] | –
COc1ccc(C=O)cc1Cn1cnc2c(cnn2C)c1=O | inconclusive: 29.1 µM [activator, single point] | –
CN(c1ccccc1)S(=O)(=O)c1cccc(NC(=O)C2=NN(c3ccccc3)C(=O)CC2)c1 | inconclusive: 16.4 µM [activator, single point] | –
CSc1cccc(NC(=S)N(CCCN2CCCC2)Cc2cccn2Cc2ccc(Cl)cc2)c1 | inconclusive: 0.164 µM [activator, full curve, poor fit] | –
CNC(=O)c1ccc(Nc2nnc(-c3ccc(O)cc3)c3ccccc23)cc1 | inconclusive: 29.1 µM [activator, single point] | –
Cc1c(CCC(=O)O)c(=O)n2c([nH]c3ccccc32)c1C#N | – | inactive: -6.9%
CCN(CC)c1ccc(C(=C2C=CC(=[N+](CC)CC)C=C2)c2ccccc2)cc1 | inconclusive: 1.46 µM [activator, partial curve, poor fit] | –
O=C1OCCN1C(=O)[C@H]1[C@H](c2ccc(Cl)cc2)C(c2ccccc2)=NN1c1ccccc1 | inconclusive: 18.4 µM [activator, partial curve] | –

Copied from the list.
In re-replication activation, COc1ccccc1NC(=O)CCc1nc2sc3c(c2c(=O)[nH]1)CCCC3 shows inconclusive: -46.7% [activator]
In Potency, O=C1OCCN1C(=O)[C@H]1[C@H](c2ccc(F)cc2)C(c2cccc(Cl)c2)=NN1c1ccccc1 shows active: 18.4 µM
In Potency, CSc1cccc(NC(=S)N(CCCN2CCCC2)Cc2cccn2Cc2ccc(Cl)cc2)c1 shows inconclusive: 0.164 µM [activator, full curve, poor fit]
